The supplement of paper PMC12819154, “High-throughput peptide-centric local stability assay extends protein–ligand identification to membrane proteins, tissues and bacteria” (Nature Structural & Molecular Biology, 2025)
The other results are listed elsewhere or left out. Most entries show no effect beyond the scatter of the controls.

Amino acid sequences for entries named in this document (tags omitted). A change or cut given only in a name is not applied to a line headed by its entry.
UniProt O43633: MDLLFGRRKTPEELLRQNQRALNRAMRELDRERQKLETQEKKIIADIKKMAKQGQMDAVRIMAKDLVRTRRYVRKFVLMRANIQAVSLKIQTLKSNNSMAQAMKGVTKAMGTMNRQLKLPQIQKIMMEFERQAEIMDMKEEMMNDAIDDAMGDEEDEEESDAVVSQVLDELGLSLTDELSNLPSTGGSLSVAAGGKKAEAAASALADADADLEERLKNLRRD
UniProt O75251, whole entry: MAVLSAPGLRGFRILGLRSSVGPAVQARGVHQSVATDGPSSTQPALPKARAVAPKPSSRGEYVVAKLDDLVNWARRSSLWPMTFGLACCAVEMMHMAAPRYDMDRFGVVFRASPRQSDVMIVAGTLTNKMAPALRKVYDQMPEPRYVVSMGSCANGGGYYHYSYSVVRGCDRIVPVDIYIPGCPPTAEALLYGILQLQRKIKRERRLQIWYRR
UniProt O43543: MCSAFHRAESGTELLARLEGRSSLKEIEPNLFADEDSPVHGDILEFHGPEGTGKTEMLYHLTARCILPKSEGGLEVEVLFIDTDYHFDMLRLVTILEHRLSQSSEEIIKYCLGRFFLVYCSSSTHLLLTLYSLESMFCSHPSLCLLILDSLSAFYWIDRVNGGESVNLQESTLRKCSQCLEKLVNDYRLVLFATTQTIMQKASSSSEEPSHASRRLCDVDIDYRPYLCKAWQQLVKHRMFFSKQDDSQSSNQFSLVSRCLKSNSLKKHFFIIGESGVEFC
UniProt O43426, whole entry: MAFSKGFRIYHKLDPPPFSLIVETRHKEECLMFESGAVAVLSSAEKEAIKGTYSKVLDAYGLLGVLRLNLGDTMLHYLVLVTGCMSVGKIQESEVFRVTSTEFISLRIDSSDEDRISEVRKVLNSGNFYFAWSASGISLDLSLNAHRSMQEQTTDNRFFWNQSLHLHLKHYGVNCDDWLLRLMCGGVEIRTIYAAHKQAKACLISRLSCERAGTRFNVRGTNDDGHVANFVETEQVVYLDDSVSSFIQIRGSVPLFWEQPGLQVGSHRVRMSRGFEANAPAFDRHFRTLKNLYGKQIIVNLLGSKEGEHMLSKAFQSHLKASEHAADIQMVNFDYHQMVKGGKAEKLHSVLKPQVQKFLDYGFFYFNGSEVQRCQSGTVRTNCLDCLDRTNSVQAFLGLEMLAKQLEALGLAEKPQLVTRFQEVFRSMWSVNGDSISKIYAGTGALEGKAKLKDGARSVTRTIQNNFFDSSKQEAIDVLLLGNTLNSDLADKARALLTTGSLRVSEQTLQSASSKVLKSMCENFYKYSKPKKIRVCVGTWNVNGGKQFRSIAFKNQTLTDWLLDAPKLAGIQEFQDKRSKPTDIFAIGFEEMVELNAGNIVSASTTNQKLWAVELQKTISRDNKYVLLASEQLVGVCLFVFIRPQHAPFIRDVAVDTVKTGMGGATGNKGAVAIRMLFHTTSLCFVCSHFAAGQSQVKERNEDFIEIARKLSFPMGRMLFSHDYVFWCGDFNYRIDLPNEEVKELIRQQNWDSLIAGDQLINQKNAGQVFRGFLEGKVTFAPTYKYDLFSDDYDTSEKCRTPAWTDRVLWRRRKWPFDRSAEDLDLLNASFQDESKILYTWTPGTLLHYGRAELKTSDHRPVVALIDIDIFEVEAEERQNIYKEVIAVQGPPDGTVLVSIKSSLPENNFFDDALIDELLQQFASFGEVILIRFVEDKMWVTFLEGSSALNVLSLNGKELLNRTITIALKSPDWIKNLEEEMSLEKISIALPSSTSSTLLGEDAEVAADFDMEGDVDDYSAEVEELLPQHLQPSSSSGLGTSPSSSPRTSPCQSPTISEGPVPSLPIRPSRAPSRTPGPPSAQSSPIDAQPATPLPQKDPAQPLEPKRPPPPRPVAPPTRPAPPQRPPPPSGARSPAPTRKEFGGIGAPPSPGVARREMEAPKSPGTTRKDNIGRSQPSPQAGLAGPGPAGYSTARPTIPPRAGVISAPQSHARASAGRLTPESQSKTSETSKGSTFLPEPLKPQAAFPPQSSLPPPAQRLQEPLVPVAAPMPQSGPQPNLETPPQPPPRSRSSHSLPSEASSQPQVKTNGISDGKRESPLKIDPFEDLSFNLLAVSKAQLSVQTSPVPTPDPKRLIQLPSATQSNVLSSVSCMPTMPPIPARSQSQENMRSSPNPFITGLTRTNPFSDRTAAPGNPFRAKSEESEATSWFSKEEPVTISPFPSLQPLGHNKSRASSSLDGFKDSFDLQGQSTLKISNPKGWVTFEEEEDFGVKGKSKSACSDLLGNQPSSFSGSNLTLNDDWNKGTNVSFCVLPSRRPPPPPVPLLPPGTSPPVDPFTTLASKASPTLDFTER
UniProt O60264, whole entry: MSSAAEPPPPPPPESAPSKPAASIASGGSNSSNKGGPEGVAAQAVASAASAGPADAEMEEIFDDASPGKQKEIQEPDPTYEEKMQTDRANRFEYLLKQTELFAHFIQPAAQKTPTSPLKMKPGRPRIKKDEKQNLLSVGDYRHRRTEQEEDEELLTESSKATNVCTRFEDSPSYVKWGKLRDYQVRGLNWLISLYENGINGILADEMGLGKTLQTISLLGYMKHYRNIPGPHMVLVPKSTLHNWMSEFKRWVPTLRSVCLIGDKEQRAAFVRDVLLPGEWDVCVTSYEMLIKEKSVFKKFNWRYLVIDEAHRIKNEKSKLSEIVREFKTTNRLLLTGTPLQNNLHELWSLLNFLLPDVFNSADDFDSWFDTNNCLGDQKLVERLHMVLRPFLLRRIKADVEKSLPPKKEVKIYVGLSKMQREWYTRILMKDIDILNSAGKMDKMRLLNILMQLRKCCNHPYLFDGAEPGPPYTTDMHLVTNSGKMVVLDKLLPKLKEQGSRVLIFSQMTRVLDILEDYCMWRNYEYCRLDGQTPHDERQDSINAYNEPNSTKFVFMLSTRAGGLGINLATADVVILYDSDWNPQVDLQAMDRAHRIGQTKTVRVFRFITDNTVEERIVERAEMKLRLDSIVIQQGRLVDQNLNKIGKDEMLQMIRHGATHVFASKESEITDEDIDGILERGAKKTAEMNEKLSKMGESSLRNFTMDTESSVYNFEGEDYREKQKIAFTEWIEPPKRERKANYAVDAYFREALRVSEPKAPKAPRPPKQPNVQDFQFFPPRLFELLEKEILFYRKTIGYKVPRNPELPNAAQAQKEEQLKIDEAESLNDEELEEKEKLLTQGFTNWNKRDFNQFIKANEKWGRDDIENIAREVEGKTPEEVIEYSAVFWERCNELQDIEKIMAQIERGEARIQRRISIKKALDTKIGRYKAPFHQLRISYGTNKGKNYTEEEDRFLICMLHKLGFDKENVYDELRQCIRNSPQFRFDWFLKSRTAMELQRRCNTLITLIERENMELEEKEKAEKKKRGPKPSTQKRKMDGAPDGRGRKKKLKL
UniProt O75177, whole entry: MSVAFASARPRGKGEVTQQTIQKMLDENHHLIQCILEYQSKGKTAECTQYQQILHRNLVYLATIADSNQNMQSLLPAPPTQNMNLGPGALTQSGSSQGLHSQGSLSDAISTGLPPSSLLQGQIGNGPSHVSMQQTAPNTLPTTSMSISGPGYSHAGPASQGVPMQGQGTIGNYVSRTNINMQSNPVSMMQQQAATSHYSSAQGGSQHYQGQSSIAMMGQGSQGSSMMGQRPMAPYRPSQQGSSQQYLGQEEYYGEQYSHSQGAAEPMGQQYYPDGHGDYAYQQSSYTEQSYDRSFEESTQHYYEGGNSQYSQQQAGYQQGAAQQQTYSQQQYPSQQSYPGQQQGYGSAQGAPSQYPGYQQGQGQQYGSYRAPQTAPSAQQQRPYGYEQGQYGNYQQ
UniProt O75347: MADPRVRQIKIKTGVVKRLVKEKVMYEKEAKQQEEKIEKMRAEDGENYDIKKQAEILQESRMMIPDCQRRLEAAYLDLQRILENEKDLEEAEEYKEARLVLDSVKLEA
UniProt O43402: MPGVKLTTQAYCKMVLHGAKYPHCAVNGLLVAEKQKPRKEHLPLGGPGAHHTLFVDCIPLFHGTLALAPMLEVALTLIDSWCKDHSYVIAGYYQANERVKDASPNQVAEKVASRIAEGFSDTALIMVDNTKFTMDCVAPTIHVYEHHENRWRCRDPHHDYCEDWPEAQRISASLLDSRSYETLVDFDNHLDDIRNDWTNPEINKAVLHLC
UniProt O60610, whole entry: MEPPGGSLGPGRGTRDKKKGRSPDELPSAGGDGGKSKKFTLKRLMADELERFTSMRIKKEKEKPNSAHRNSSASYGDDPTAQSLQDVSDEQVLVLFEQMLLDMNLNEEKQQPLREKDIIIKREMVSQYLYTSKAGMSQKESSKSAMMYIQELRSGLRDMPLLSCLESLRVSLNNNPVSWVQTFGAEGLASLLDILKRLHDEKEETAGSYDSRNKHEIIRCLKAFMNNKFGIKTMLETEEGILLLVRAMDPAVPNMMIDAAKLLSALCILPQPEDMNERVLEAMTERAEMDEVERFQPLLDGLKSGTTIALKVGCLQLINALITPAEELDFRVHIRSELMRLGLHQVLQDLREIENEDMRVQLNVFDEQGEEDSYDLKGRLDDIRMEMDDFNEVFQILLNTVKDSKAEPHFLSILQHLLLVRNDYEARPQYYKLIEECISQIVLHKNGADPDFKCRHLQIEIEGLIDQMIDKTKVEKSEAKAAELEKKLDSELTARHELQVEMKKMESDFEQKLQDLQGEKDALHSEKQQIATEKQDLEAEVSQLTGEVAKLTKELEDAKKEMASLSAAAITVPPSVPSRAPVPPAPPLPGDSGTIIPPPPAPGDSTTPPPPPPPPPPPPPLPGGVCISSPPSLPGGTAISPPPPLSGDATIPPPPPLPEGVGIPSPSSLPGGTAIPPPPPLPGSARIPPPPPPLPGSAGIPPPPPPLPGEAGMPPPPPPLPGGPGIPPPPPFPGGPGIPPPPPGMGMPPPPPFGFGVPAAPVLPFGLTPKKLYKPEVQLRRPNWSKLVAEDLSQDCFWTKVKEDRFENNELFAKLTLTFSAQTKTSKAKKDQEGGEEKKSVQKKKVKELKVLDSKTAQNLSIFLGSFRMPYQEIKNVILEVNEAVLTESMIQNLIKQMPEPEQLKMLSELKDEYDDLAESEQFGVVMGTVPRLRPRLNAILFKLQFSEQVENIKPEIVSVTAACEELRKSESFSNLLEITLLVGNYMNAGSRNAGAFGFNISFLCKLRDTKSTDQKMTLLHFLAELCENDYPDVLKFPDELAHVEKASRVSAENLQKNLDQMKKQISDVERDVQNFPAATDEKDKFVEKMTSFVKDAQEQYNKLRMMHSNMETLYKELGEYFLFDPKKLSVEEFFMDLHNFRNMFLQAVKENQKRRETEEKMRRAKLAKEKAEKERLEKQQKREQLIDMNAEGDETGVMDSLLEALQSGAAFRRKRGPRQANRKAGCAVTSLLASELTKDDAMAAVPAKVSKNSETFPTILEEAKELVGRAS
UniProt O43583: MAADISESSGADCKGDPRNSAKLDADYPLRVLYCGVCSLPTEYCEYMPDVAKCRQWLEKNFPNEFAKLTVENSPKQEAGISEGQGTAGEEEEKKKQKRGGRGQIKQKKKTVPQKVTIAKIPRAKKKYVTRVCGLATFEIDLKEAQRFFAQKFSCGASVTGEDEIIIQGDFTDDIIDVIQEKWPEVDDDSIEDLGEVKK
UniProt O60671: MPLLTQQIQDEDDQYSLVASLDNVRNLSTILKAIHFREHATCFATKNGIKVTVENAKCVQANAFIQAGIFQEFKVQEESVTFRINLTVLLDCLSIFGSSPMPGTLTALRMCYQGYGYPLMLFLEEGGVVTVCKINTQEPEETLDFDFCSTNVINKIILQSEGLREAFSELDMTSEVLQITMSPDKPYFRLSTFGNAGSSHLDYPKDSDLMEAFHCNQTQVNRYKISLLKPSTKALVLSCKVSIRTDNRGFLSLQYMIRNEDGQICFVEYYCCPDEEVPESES
UniProt O75363: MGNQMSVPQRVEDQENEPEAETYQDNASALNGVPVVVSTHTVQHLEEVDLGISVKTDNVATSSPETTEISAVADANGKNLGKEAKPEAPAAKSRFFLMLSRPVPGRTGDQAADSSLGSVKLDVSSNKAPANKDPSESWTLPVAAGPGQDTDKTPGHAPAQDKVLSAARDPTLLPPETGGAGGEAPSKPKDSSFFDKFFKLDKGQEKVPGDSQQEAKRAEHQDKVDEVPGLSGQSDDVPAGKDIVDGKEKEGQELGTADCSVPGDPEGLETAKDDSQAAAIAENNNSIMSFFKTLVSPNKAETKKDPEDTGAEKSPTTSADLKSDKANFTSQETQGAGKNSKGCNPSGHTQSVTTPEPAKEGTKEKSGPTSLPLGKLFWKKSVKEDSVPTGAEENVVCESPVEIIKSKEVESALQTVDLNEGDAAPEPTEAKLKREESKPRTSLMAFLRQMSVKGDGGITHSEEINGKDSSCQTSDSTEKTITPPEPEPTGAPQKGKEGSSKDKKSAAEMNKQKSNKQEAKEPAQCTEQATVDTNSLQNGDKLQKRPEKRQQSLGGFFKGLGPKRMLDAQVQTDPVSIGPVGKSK
UniProt O75368: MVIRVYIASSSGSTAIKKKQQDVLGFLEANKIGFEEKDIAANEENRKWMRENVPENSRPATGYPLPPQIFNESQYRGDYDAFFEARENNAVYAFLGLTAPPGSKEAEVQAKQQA

compound: Cc1nc(Nc2ncc(C(=O)Nc3c(C)cccc3Cl)s2)cc(N2CCN(CCO)CC2)n1 [dasatinib]; experiment: log2 fold change of tryptic peptide abundance, ligand vs vehicle (limited proteolysis) (log2 ratio); higher = more trypsin-susceptible (destabilized); conditions: ligand concentration: 5 uM; sample: K562 cleared lysate

Target | log2 fold change
CHMP2A (peptide sequence: IMMEFER, peptide start residue: 125) (UniProt O43633) | 0.0887
UniProt O75346 (peptide sequence: EIFQCDKYGK, peptide start residue: 142) | 0.715
TSC22D2 (peptide sequence: NSLLERENALLK, peptide start residue: 723) (UniProt O75157) | 0.206
UniProt O75312 (peptide sequence: MDQIIEGNMK, peptide start residue: 391) | -0.253
OIP5 (peptide sequence: GDFCGGTER, peptide start residue: 18) (UniProt O43482) | 0.101
NDUFS7 (peptide sequence: KVYDQMPEPR, peptide start residue: 136) (UniProt O75251) | 0.077
STRN (peptide sequence: SVIDTSTIVR, peptide start residue: 259) (UniProt O43815) | -0.0606
XRCC2 (peptide sequence: ASSSSEEPSHASR, peptide start residue: 202) (UniProt O43543) | 0.164
UniProt O43309 (peptide sequence: SVLTEHQR, peptide start residue: 510) | -0.108
DAPK3 (peptide sequence: EESDSLGQDLR, peptide start residue: 369) (UniProt O43293) | 0.322
SYNJ1 (peptide sequence: AQLSVQTSPVPTPDPKR, peptide start residue: 1338) (UniProt O43426) | -0.703
TXNL1 (peptide sequence: IFINLPR, peptide start residue: 196) (UniProt O43396) | -0.0872
UniProt O43310 (peptide sequence: VLPAWQGYHPMPHEVEIAHTK, peptide start residue: 164) | -0.471
SMARCA5 (peptide sequence: FEDSPSYVKWGK, peptide start residue: 168) (UniProt O60264) | -0.38
BRD4 (peptide sequence: AQAEHAEKEKER, peptide start residue: 1243) (UniProt O60885) | -0.177
SS18L1 (peptide sequence: SVAFASARPR, peptide start residue: 2) (UniProt O75177) | -0.238
TBCA (peptide sequence: VMYEKEAK, peptide start residue: 24) (UniProt O75347) | -0.0797
N4BP1 (peptide sequence: FSQLPFKVEAK, peptide start residue: 442) (UniProt O75113) | -0.463
UniProt O43402 (peptide sequence: SYETLVDFDNHLDDIR, peptide start residue: 179) | -0.225
UniProt O60610 (peptide sequence: HLQIEIEGLIDQMIDKTKVEK, peptide start residue: 456) | 0.372
KIF1B (peptide sequence: VTGIYELSLCK, peptide start residue: 1438) (UniProt O60333) | 0.608
NMT2 (peptide sequence: IQQPSKNPSVPMQK, peptide start residue: 77) (UniProt O60551) | 0.0875
DENR (peptide sequence: LDADYPLR, peptide start residue: 23) (UniProt O43583) | 0.192
RAD1 (peptide sequence: IILQSEGLR, peptide start residue: 156) (UniProt O60671) | 0.0876
BCAS1 (peptide sequence: VPGDSQQEAK, peptide start residue: 207) (UniProt O75363) | -0.595
SPAG9 (peptide sequence: HTEMIHNYMEHLER, peptide start residue: 163) (UniProt O60271) | 0.0905
SH3BGRL (peptide sequence: VYIASSSGSTAIK, peptide start residue: 5) (UniProt O75368) | 0.0746

Reformatted: entries from further up.
Target	log2 fold change
DENR (peptide sequence: LDADYPLR, peptide start residue: 23) (UniProt O43583)	0.192
RAD1 (peptide sequence: IILQSEGLR, peptide start residue: 156) (UniProt O60671)	0.0876
